Laboratory results: PubChem BioAssay AID1259254 (NCATS, 2017)

Test: 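Genome-wide screen for genes that prevent DNA re-replication in cancer cells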 (primary screen)
System: human HCT116 colorectal cancer cells
Reagent: single siRNA against human genes
Timing: 3 days
Measured: 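Nuclei stained with Hoechst and imaged; cell-cycle phase assigned by DNA content; G2 share scaled per plate, non-targeting siRNA 0%, GMNN siRNA 100%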
Direction: G2 robust z-score and G2 cells, % of GMNN control: higher = more G2 cells, more excess DNA replication; raw share of cells in G2: higher = larger share of cells with G2 DNA content
Hit rule: 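An siRNA counts as active if its G2 robust z-score lies at least 5 MADs above the screen median; here such calls match roughly 38% of GMNN control or more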
The deposit covers about 59,000 reagents; shown is an unselected part. About 1,550 of all reagents (2.6%) count as active. 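G2 share is only a proxy for re-replication; each gene was hit by three separate siRNAs, and active genes were retested.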 Raw values vary from plate to plate and are shown uncorrected. A number with no mark means an inactive call. The numbers tell different reagents against one gene apart. The record does not give: the amount of reagent.

| Target gene | reagent | G2 robust z-score | G2 cells, % of GMNN control | raw share of cells in G2 (%) |
| --- | --- | --- | --- | --- |
| SELPLG (selectin P ligand) | 1 | 0.174 | 4.19 | 7.09 |
| SELPLG (selectin P ligand) | 2 | 0.874 | 9.11 | 7.67 |
| SELPLG (selectin P ligand) | 3 | 0.916 | 9.41 | 7.07 |
| CRP (C-reactive protein) | 1 | -0.155 | 1.88 | 4.21 |
| CRP (C-reactive protein) | 2 | -0.384 | 0.268 | 4.97 |
| CRP (C-reactive protein) | 3 | 1.2 | 11.4 | 7.24 |
| PDE1B (phosphodiesterase 1B) | 1 | -1.1 | -4.78 | 3.24 |
| PDE1B (phosphodiesterase 1B) | 2 | 0.308 | 5.13 | 5.85 |
| PDE1B (phosphodiesterase 1B) | 3 | -0.276 | 1.02 | 3.8 |
| CCNI (cyclin I) | 1 | -0.632 | -1.48 | 3.36 |
| CCNI (cyclin I) | 2 | -0.935 | -3.61 | 5.05 |
| CCNI (cyclin I) | 3 | -0.084 | 2.38 | 6.73 |
| C2CD3 (C2 domain containing 3 centriole elongation regulator) | 1 | -0.419 | 0.0161 | 4.42 |
| C2CD3 (C2 domain containing 3 centriole elongation regulator) | 2 | 0.596 | 7.16 | 7.04 |
| C2CD3 (C2 domain containing 3 centriole elongation regulator) | 3 | 1.46 | 13.2 | 7.92 |
| S1PR2 (sphingosine-1-phosphate receptor 2) | 1 | 0.0772 | 3.51 | 7.1 |
| S1PR2 (sphingosine-1-phosphate receptor 2) | 2 | -0.52 | -0.691 | 4.28 |
| S1PR2 (sphingosine-1-phosphate receptor 2) | 3 | 9.49 (active) | 69.8 | 24.7 |
| ACBD5 (acyl-CoA binding domain containing 5) | 1 | 0.422 | 5.93 | 7.51 |
| ACBD5 (acyl-CoA binding domain containing 5) | 2 | -0.373 | 0.346 | 5.83 |
| ACBD5 (acyl-CoA binding domain containing 5) | 3 | -0.536 | -0.807 | 4.18 |
| EIF3J (eukaryotic translation initiation factor 3 subunit J) | 1 | -0.552 | -0.917 | 4.12 |
| EIF3J (eukaryotic translation initiation factor 3 subunit J) | 2 | 0.558 | 6.89 | 7.68 |
| EIF3J (eukaryotic translation initiation factor 3 subunit J) | 3 | 0.828 | 8.79 | 7.86 |
| LOC440386 (retired record) | 1 | 2.45 | 20.2 | 9.98 |
| LOC440386 (retired record) | 2 | 0.102 | 3.69 | 5.05 |
| LOC440386 (retired record) | 3 | -0.966 | -3.83 | 1.97 |

6 successive reagents already listed, for reference:
| Target gene | reagent | G2 robust z-score | G2 cells, % of GMNN control | raw share of cells in G2 (%) |
| --- | --- | --- | --- | --- |
| CCNI (cyclin I) | 2 | -0.935 | -3.61 | 5.05 |
| CCNI (cyclin I) | 3 | -0.084 | 2.38 | 6.73 |
| C2CD3 (C2 domain containing 3 centriole elongation regulator) | 1 | -0.419 | 0.0161 | 4.42 |
| C2CD3 (C2 domain containing 3 centriole elongation regulator) | 2 | 0.596 | 7.16 | 7.04 |
| C2CD3 (C2 domain containing 3 centriole elongation regulator) | 3 | 1.46 | 13.2 | 7.92 |
| S1PR2 (sphingosine-1-phosphate receptor 2) | 1 | 0.0772 | 3.51 | 7.1 |

The listing continues.
| Target gene | reagent | G2 robust z-score | G2 cells, % of GMNN control | raw share of cells in G2 (%) |
| --- | --- | --- | --- | --- |
| BCR (BCR activator of RhoGEF and GTPase) | 1 | -0.64 | -1.54 | 4.2 |
| BCR (BCR activator of RhoGEF and GTPase) | 2 | -0.282 | 0.986 | 5.42 |
| BCR (BCR activator of RhoGEF and GTPase) | 3 | 0.515 | 6.59 | 6.45 |
| RNF17 (ring finger protein 17) | 1 | 0.299 | 5.07 | 6.35 |
| RNF17 (ring finger protein 17) | 2 | -0.132 | 2.04 | 5.43 |
| RNF17 (ring finger protein 17) | 3 | -1.18 | -5.32 | 1.34 |
| ZBTB32 (zinc finger and BTB domain containing 32) | 1 | -0.838 | -2.93 | 3.03 |
| ZBTB32 (zinc finger and BTB domain containing 32) | 2 | 1.54 | 13.8 | 8.76 |
| ZBTB32 (zinc finger and BTB domain containing 32) | 3 | 2.34 | 19.4 | 15 |
| NAP1L3 (nucleosome assembly protein 1 like 3) | 1 | 1.8 | 15.6 | 11.6 |
| NAP1L3 (nucleosome assembly protein 1 like 3) | 2 | 2.39 | 19.8 | 12 |
| NAP1L3 (nucleosome assembly protein 1 like 3) | 3 | -0.0658 | 2.5 | 4.26 |
| CEACAM8 (CEA cell adhesion molecule 8) | 1 | 0.516 | 6.6 | 8.4 |
| CEACAM8 (CEA cell adhesion molecule 8) | 2 | 5.42 (active) | 41.1 | 19.2 |
| CEACAM8 (CEA cell adhesion molecule 8) | 3 | -0.452 | -0.216 | 3.44 |
| APBA1 (amyloid beta precursor protein binding family A member 1) | 1 | 0.853 | 8.97 | 7.02 |
| APBA1 (amyloid beta precursor protein binding family A member 1) | 2 | 0.454 | 6.16 | 7.73 |
| APBA1 (amyloid beta precursor protein binding family A member 1) | 3 | -0.281 | 0.991 | 3.47 |
| MERTK (MER proto-oncogene, tyrosine kinase) | 1 | 5.16 (active) | 39.3 | 17.8 |
| MERTK (MER proto-oncogene, tyrosine kinase) | 2 | 0.44 | 6.06 | 7.4 |
| MERTK (MER proto-oncogene, tyrosine kinase) | 3 | 0.0478 | 3.3 | 4.74 |
| C11orf40 (chromosome 11 putative open reading frame 40) | 1 | 1.22 | 11.5 | 7.69 |
| C11orf40 (chromosome 11 putative open reading frame 40) | 2 | 0.594 | 7.15 | 5.12 |
| C11orf40 (chromosome 11 putative open reading frame 40) | 3 | 0.359 | 5.49 | 4.98 |
| SLC2A6 | 1 | 0.53 | 6.69 | 9.05 |
| SLC2A6 | 2 | -0.824 | -2.83 | 2.89 |
| SLC2A6 | 3 | 1.06 | 10.4 | 7.64 |
| SOX11 (SRY-box transcription factor 11) | 1 | 4.49 | 34.6 | 17.3 |
| SOX11 (SRY-box transcription factor 11) | 2 | -0.871 | -3.16 | 3.46 |
| SOX11 (SRY-box transcription factor 11) | 3 | 0.581 | 7.05 | 6.29 |
| LCE2A (late cornified envelope 2A) | 1 | -1.13 | -5 | 2.18 |
| LCE2A (late cornified envelope 2A) | 2 | 0.266 | 4.84 | 5.65 |
| LCE2A (late cornified envelope 2A) | 3 | -0.608 | -1.31 | 2.69 |
| NIT2 (nitrilase family member 2) | 1 | 0.806 | 8.64 | 7.75 |
| NIT2 (nitrilase family member 2) | 2 | -0.231 | 1.34 | 5.1 |
| NIT2 (nitrilase family member 2) | 3 | -0.768 | -2.44 | 2.26 |
| GLYAT (glycine-N-acyltransferase) | 1 | -0.0695 | 2.48 | 6.77 |
| GLYAT (glycine-N-acyltransferase) | 2 | -0.22 | 1.42 | 7.04 |
| GLYAT (glycine-N-acyltransferase) | 3 | 2.33 | 19.4 | 10.1 |
| OPALIN (oligodendrocytic myelin paranodal and inner loop protein) | 1 | -0.58 | -1.12 | 1.49 |
| OPALIN (oligodendrocytic myelin paranodal and inner loop protein) | 2 | 1.54 | 13.8 | 9.63 |
| OPALIN (oligodendrocytic myelin paranodal and inner loop protein) | 3 | -0.0428 | 2.67 | 4.12 |
